Patent publication US8703114B2 (priority 2008, dated 2014)

Key:
[1] = Fmoc solid-phase peptide synthesis; 2-chlorotrityl chloride; conditions: whole synthesis, HPLC
[2] = general procedure: Fmoc solid-phase peptide synthesis; 2-chlorotrityl chloride; conditions: whole synthesis

Substance	purity (crude or final not stated) [1] [%]	crude HPLC purity [2] [%]
MA-Gly-Gly-Pro-Nle	95	–
MA-Gly-Gly-Pro-Nle-NH(CH2)2NH2	–	89
